# Assay results from US8648094B2, “IAP BIR domain binding compounds” (Pharmascience, Inc., priority 2006, dated 2014).
# The chains behind the UniProt entries cited, without tags or fusion partners.
# UniProt Q13490, whole entry: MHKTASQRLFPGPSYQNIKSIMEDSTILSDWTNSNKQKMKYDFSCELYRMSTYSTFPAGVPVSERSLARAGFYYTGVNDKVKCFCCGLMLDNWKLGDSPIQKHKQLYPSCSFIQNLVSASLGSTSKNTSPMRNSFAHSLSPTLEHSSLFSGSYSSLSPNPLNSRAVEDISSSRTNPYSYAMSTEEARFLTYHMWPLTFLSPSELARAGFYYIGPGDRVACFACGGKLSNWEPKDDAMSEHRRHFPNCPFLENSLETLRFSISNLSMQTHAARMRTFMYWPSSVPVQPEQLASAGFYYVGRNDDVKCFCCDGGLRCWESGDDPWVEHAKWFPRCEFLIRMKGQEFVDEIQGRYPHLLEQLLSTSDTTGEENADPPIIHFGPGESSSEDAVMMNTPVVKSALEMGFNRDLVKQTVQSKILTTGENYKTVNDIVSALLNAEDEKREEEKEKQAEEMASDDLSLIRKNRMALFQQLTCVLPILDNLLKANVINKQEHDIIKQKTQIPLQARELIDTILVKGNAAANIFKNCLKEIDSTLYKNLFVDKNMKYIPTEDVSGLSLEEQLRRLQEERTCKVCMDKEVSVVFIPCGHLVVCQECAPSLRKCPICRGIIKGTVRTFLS
# At least one structure is not confirmed: it was looked up by name or label, or the drawing left a doubt.
# Target: T1, c-IAP1 (Homo sapiens, UniProt Q13490)
# T1 construct: endogenous in cells; host or cells: HCT116
# Experiment: Detection of c-IAP1 in cells by western blotting
# Format: cell-based
# Conditions: HCT116 cells, overnight treatment
# Description: Detection of cell expressed XIAP and PARP were done by western blotting. Cells were plated at 300 000 cells/well in a 60 mm wells (6 wells plate dish). The next day the cells were treated with selected compound at the indicated concentration. […] The resulting pellet was rinsed twice with cold TBS. The final washed pellet of cells was the lysed with 250 ul Lysis buffer (NP-40, glycerol, 1% of a protease inhibitor cocktail (Sigma)), placed at 4° C. for 25 min with gentle shaking. The cells extract was centrifuged at 4° C. for 10 min at 10 000 rpm. Both the supernatant and the pellet were kept for western blotting analysis as described below. From the supernatant, the protein content was evaluated and about 50 ug of protein was fractionated onto a 10% SDS-PAGE. Pellets were washed with the lysis buffer and re-suspend into 50 ul of Lamelli buffer 1×, boiled and fractionated on SDS-PAGE. […]
# Upon overnight incubation, the membranes received three washes of 15 min in TBST then were incubated for 1 hour at room temperature in the presence of a secondary antibody coupled with HRP-enzyme (Chemicon) and diluted at 1/5 000. Upon incubation each membrane were washed three times with TBST and the immunoreactive bands were detected by addition of a luminescent substrate (ECL kit Amersham) and capture of signal on a X-RAY film for various time of exposure.
structure (smiles),measurement,value
CN[C@@H](C)C(=O)N[C@H](C(=O)N1CCC[C@H]1CN(CCc1ccccc1)C(=O)[C@@H](C)NC(=O)c1ccc(C(=O)N[C@H](C)C(=O)N(CCc2ccccc2)C[C@@H]2CCCN2C(=O)[C@@H](NC(=O)[C@H](C)NC)C(C)(C)C)cc1)C(C)(C)C [Compound 59],c-IAP1 levels,reduced
